Data source: PubChem BioAssay AID743121 (NCATS, 2013)

- Test: 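Genes whose silencing strengthens cell killing by camptothecin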 (primary screen)
- Cells: MDA-MB-231 cells, a human breast cancer line
- Reagents: single siRNA against human genes, 20 nM siRNA (0.8 pmol per well)
- Duration: 120 h (drug added 48 h after transfection, read 72 h later)
- Challenge: camptothecin 20 nM (about EC30) for 72 h; vehicle 0.1% DMSO in parallel plates
- Read-out: 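CellTiter-Glo ATP signal, scaled to control siRNA as percent viability; sensitisation given as log2 of untreated divided by camptothecin-treated viability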
- Direction: log2 vehicle/camptothecin viability: higher = stronger sensitisation to camptothecin; viability with camptothecin: higher = more viable cells
- Active means: 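Each gene scored by redundant siRNA activity (RSA) over its individual siRNA ratios; a gene is called active at p < 0.001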
The deposit covers about 26,000 reagents; this is an unselected part. 167 of all reagents (0.63%) count as active. 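Calls are per gene from RSA p-values that are not deposited; an individual active-marked siRNA can sensitise only weakly.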 The numbers tell different reagents against one gene apart. Not all columns of the deposit are shown. No sequences are given here.

| log2 vehicle/camptothecin viability | viability with camptothecin (% of control) | outcome | Target gene | reagent |
| --- | --- | --- | --- | --- |
| -0.507 | 27.7 | inactive | PPM1F | 1 |
| -0.273 | 114 | inactive | PPM1F | 2 |
| -0.204 | 79.5 | inactive | PPM1F | 3 |
| -0.121 | 74.2 | inactive | PPM1F | 4 |
| 0.972 | 18.2 | inactive | UQCRC2 | 1 |
| 0.125 | 55.4 | inactive | UQCRC2 | 2 |
| -0.309 | 68.9 | inactive | UQCRC2 | 3 |
| -0.348 | 83.6 | inactive | PRKD3 | 1 |
| 0.318 | 71.8 | inactive | PRKD3 | 2 |
| 0.194 | 66.9 | inactive | PRKD3 | 3 |
| -0.0701 | 82 | inactive | PRKD3 | 4 |
| -0.344 | 94.6 | inactive | MBD3 | 1 |
| -0.47 | 81.8 | inactive | MBD3 | 2 |
| 0.295 | 39 | inactive | MBD3 | 3 |
| -0.289 | 73.5 | inactive | MBD3 | 4 |
| -0.354 | 87.9 | inactive | P2RX5 | 1 |
| 0.00997 | 101 | inactive | P2RX5 | 2 |
| -0.145 | 93.3 | inactive | P2RX5 | 3 |
| 0.0123 | 58.4 | inactive | P2RX5 | 4 |
| -0.471 | 26.2 | inactive | P2RX5 | 5 |
| 0.339 | 46.7 | inactive | P2RX5 | 6 |
| 0.295 | 82 | inactive | P2RX5 | 7 |
| -0.138 | 63.7 | inactive | P2RX5 | 8 |
| -0.368 | 68 | inactive | IL25 | 1 |
| -0.371 | 126 | inactive | IL25 | 2 |
| 0.261 | 80.4 | inactive | IL25 | 3 |
| -0.176 | 103 | inactive | IL25 | 4 |
| -0.586 | 47.2 | inactive | RAMP1 | 1 |
| 0.13 | 82.4 | inactive | RAMP1 | 2 |
| 0.15 | 53.8 | inactive | RAMP1 | 3 |
| -0.0564 | 55.7 | inactive | RAMP1 | 4 |
| -0.0526 | 116 | inactive | SLC6A12 | 1 |
| -0.191 | 79.3 | inactive | SLC6A12 | 2 |
| -0.164 | 89.9 | inactive | SLC6A12 | 3 |
| 0.252 | 78.2 | inactive | SLC6A12 | 4 |
| -0.0895 | 99.2 | inactive | VPS11 | 1 |
| 0.234 | 35 | inactive | VPS11 | 2 |
| 0.129 | 93.7 | inactive | VPS11 | 3 |
| -0.192 | 109 | inactive | VPS11 | 4 |
| -0.413 | 76.9 | inactive | GPR88 | 1 |
| 0.685 | 31.7 | inactive | GPR88 | 2 |
| -0.343 | 74.1 | inactive | GPR88 | 3 |
| -0.323 | 78.4 | inactive | GPR88 | 4 |

Copied from the list.
VPS11 #2, log2 vehicle/camptothecin viability → 0.234
Value of P2RX5 #5 in “log2 vehicle/camptothecin viability”: -0.471
Under “log2 vehicle/camptothecin viability”, P2RX5 #3 has -0.145
Value for P2RX5 #1 in “outcome”: inactive
Value for UQCRC2 #2 under “viability with camptothecin (% of control)”: 55.4
Value of P2RX5 #4 in “log2 vehicle/camptothecin viability”: 0.0123

Next records:
| log2 vehicle/camptothecin viability | viability with camptothecin (% of control) | outcome | Target gene | reagent |
| --- | --- | --- | --- | --- |
| -0.288 | 59.2 | inactive | ADAM10 | 1 |
| -0.308 | 111 | inactive | ADAM10 | 2 |
| -0.103 | 104 | inactive | ADAM10 | 3 |
| 0.162 | 74.5 | inactive | ADAM10 | 4 |
| -0.145 | 96.3 | inactive | FBXW11 | 1 |
| 0.0104 | 76.2 | inactive | FBXW11 | 2 |
| -0.213 | 112 | inactive | FBXW11 | 3 |
| -0.184 | 102 | inactive | FBXW11 | 4 |
| 0.858 | 26 | inactive | GRIK1 | 1 |
| -0.00128 | 62.2 | inactive | GRIK1 | 2 |
| 0.0443 | 81.9 | inactive | GRIK1 | 3 |
| 0.0476 | 27 | inactive | ERCC1 | 1 |
| -0.239 | 108 | inactive | ERCC1 | 2 |
| -0.0689 | 104 | inactive | ERCC1 | 3 |
| 0.492 | 49.3 | inactive | ERCC1 | 4 |
| 0.0483 | 33.2 | inactive | OR11H1 | 1 |
| -0.238 | 45.2 | inactive | OR11H1 | 2 |
| 0.304 | 87.8 | inactive | OR11H1 | 3 |
| -0.0083 | 93.2 | inactive | OR11H1 | 4 |
| -0.0769 | 82.2 | inactive | TANK | 1 |
| -0.0109 | 82.3 | inactive | TANK | 2 |
| -0.227 | 77.8 | inactive | TANK | 3 |
| -0.518 | 88.7 | inactive | TANK | 4 |
| -0.338 | 89.8 | inactive | INHBC | 1 |
| -0.385 | 90.7 | inactive | INHBC | 2 |
| -0.538 | 81.5 | inactive | INHBC | 3 |
| 0.363 | 60.8 | inactive | INHBC | 4 |
